Source: PubChem BioAssay AID602196 (INSERM, 2012)

Screen: 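Genes whose knock-down alters cisplatin killing of lung cancer cells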
System: human A549 lung cancer cells
Knock-down reagent: siRNA pair against human genes
Timing: 48 h transfection before cisplatin; time from cisplatin to read-out not stated
Treatment: cisplatin at a dose killing half of control-siRNA cells; exact dose and duration not given
Detection: 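Shift in cisplatin death relative to control siRNA, from -50 (all cells die) to +50 (no cells die); siRNAs harmful on their own scored 0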
Direction: two-siRNA summed score (-2 to +2): higher = both siRNAs protect from cisplatin killing; -2 means both sensitise; mean protection from cisplatin (shift in death) and protection from cisplatin (shift in death), siRNA C and protection from cisplatin (shift in death), siRNA D: higher = protection from cisplatin killing
Hit rule: 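siRNAs harmful alone (LDH or WST-1) get 0; others get +1 for less and -1 for more cisplatin killing; genes are active when the two siRNAs give the same sign, summing to ±2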
Meaning of the calls: active = both siRNAs shift cisplatin killing the same way; inactive = no consistent shift, or siRNA harmful alone
Shown is an unselected part of about 23,000 deposited reagents. In the full data, 455 (2%) were called active. 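Active includes both protection and sensitisation; some change values fall well beyond the stated -50 to +50 range.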 The numbers tell different reagents against one gene apart. Not given: the amount of reagent.

gene knocked down | reagent | two-siRNA summed score (-2 to +2) | mean protection from cisplatin (shift in death) (%) | protection from cisplatin (shift in death), siRNA C (%) | protection from cisplatin (shift in death), siRNA D (%) | call
FRMD6-AS1 | 1 | 2 | 14.6 | 13.5 | 15.7 | active
MMP14 | 1 | -2 | -28.5 | -47.1 | -9.9 | active
LOC441834 | 1 | 0 | 13.4 | 14.3 | 12.5 | inactive
MS4A3 | 1 | 0 | 5.6 | 2.6 | 8.5 | inactive
SPICE1 | 1 | 0 | 0.3 | -7.9 | 8.6 | inactive
LOC441851 | 1 | 0 | -0.1 | -1.8 | 1.6 | inactive
SMPDL3A | 1 | 0 | 5.2 | 2.9 | 7.6 | inactive
ATAT1 | 1 | 0 | -2 | 4.6 | -8.6 | inactive
TTK | 1 | 0 | -2.4 | -3.2 | -1.6 | inactive
EVC | 1 | 2 | 26.1 | 29.2 | 23 | active
NACA2 | 1 | 0 | 5.2 | 9.3 | 1.2 | inactive
NACA2 | 2 | 0 | 13.6 | 5.9 | 21.2 | inactive
PRPF40A | 1 | 1 | 19.9 | 12.1 | 27.6 | inactive
HTT | 1 | 0 | -2.9 | -3.2 | -2.7 | inactive
XRCC4 | 1 | 0 | -6.7 | -6.7 | -6.6 | inactive
PCDHGB7 | 1 | 0 | 6.7 | 8.4 | 5 | inactive
HECW1 | 1 | 0 | 7.8 | 18.4 | -2.7 | inactive
PARD3B | 1 | 2 | 19.7 | 20.3 | 19.2 | active
RARA | 1 | 0 | 3.6 | 3.5 | 3.7 | inactive
CIB1 | 1 | 1 | 7.8 | 12 | 3.5 | inactive
ULBP2 | 1 | 1 | 18.4 | 26.3 | 10.5 | inactive
UBB | 1 | 0 | 9.9 | 9.7 | 10.2 | inactive
SPATA2L | 1 | 0 | 1.9 | 1.5 | 2.3 | inactive
PCF11 | 1 | 0 | 10.6 | -4.7 | 25.8 | inactive
NUF2 | 1 | 0 | 10.3 | -0.1 | 20.7 | inactive
LOC440478 | 1 | 1 | 23.6 | 24.3 | 22.9 | inactive
REXO4 | 1 | 0 | 12.8 | 13.2 | 12.4 | inactive
CWC27 | 1 | 1 | 12.9 | 3.9 | 22 | inactive
ANGPT1 | 1 | 0 | 8.6 | 3.8 | 13.3 | inactive
ARL6IP5 | 1 | 0 | 16 | 24.6 | 7.5 | inactive
LOC442200 | 1 | 1 | 10.1 | 6.3 | 13.8 | inactive
LINC00114 | 1 | 1 | 10.9 | -8.5 | 30.2 | inactive
ELMOD1 | 1 | 0 | 15.9 | 27.6 | 4.3 | inactive
ZFAND6 | 1 | 0 | 1.8 | -4.4 | 7.9 | inactive
PTPRC | 1 | 0 | 4.3 | 6.4 | 2.1 | inactive
ITM2C | 1 | 0 | -5.4 | -8.5 | -2.3 | inactive
KIRREL2 | 1 | 0 | 9.3 | 7.4 | 11.2 | inactive
RSPO2 | 1 | 1 | 16.9 | 12.6 | 21.2 | inactive
PTPN20 | 1 | 0 | -1.6 | -1.6 | -1.6 | inactive
DTX2 | 1 | 0 | 5.7 | 21 | -9.5 | inactive
LOC400099 (retired record) | 1 | 0 | 8 | 15.7 | 0.3 | inactive
KLRF1 | 1 | 0 | 3.5 | 0.6 | 6.5 | inactive
CHST2 | 1 | 0 | 0.6 | 5.5 | -4.2 | inactive
ARHGEF16 | 1 | 1 | 14.1 | 19.5 | 8.8 | inactive
BRDT | 1 | 0 | 1.8 | -0.5 | 4.1 | inactive
SGK3 | 1 | 1 | 18.7 | -0.3 | 37.6 | inactive
URM1 | 1 | 0 | -0.3 | -4.5 | 3.8 | inactive
OR2W3 | 1 | -1 | -3 | 12.2 | -18.2 | inactive
HGFAC | 1 | 0 | -4.4 | -9.5 | 0.8 | inactive
BTG2 | 1 | 1 | 19 | 25.5 | 12.5 | inactive
GPX5 | 1 | -1 | -7.2 | 10.2 | -24.6 | inactive
GPRIN3 | 1 | 0 | -1.8 | 2.6 | -6.1 | inactive
KLHL1 | 1 | 0 | -0.4 | 6.3 | -7 | inactive
LOC285444 | 1 | 0 | -4.1 | -7.3 | -1 | inactive
IRF2BPL | 1 | 0 | 1.3 | -3.4 | 6.1 | inactive
DLX5 | 1 | 0 | -0.1 | -2.2 | 1.9 | inactive
IGFBP2 | 1 | 0 | 13.8 | 12.4 | 15.1 | inactive
APLNR | 1 | 0 | 10.8 | 6.7 | 15 | inactive
MED12 | 1 | -1 | -9.7 | -15 | -4.5 | inactive
LOC145846 | 1 | 1 | 13.5 | 2.5 | 24.4 | inactive
GSTA4 | 1 | 0 | 1.8 | -2.7 | 6.3 | inactive
LOC389764 | 1 | 0 | 2.5 | 7.8 | -2.9 | inactive
ERH | 1 | 0 | 18.1 | 33.2 | 3.1 | inactive
CDKL3 | 1 | 1 | 9.2 | 5.3 | 13 | inactive
LOC389345 | 1 | 0 | 8.7 | 13.8 | 3.5 | inactive
LOC441815 | 1 | 0 | 11.2 | 8.6 | 13.9 | inactive
VPS37A | 1 | 1 | 8.1 | 13.6 | 2.5 | inactive
EPHB1 | 1 | 0 | -0.6 | 5.8 | -7 | inactive
IARS2 | 1 | 0 | -9.4 | -17.1 | -1.7 | inactive
EEF1A1P47 | 1 | 1 | 7.4 | -4.5 | 19.4 | inactive
DYNLL1 | 1 | 0 | -8.4 | -2.5 | -14.3 | inactive
OTUD6A | 1 | 0 | 14.8 | 25.3 | 4.2 | inactive
LINC01020 | 1 | -1 | -4.5 | 7.9 | -16.8 | inactive
